# Measured values reported in PubChem BioAssay AID2685 (National Center for Advancing Translational Sciences (NCATS), 2010).
# This is one part of the list. The main result of the screen is listed elsewhere. These columns were measured beside it and carry no call. The list favours compounds with an active or inconclusive main result. Potencies come from curve fits of mixed quality, noted in brackets.
# Experiment: qHTS Assay for Lipid Storage Modulators in Drosophila S3 Cells;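 for cell number change: cells counted by Cell Tracker Red CMTPX staining in the red channel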
# Details: BODIPY lipid droplet fluorescence, 18-24 h; for cell number change: measured here: cell count max response, cells fed with added oleic acid
# Procedure, shortened: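 Drosophila S3 cells loaded with oleic acid (400 uM, as added) and compounds at several concentrations; lipid droplets imaged by 488-nm laser-scanning cytometry, 500–530 nm intensity and object ratio to cell channel. Percent activity normalized to 20 uM Triacsin C.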
# [1] = measured here: cell number channel AC50, cells fed with added oleic acid
# [2] = measured here: lipid fluorescence (Fed channel) AC50, cells fed with added oleic acid
SMILES,AC50 [1],AC50 [2],cell number change [%]
COCCN1Cc2cccc(C(=O)Nc3cccc(C)c3C)c2C1=O,"1.16 µM [rising, partial curve]","1.84 µM [rising, partial curve]",
Cn1c(=O)[nH]c(=O)c2c1nc(CN1CCOCC1)n2CCCc1ccccc1,"2.06 µM [rising, partial curve, poor fit]",,
CCCCC(=O)Nc1nc(C)c(-c2csc(Nc3cc(OC)ccc3OC)n2)s1,"2.31 µM [falling, full curve, poor fit]",,-39
CC(=O)Nc1ccc(NC(=S)NC(=O)/C=C/c2ccccc2)cc1,,,23
O=C(NCc1ccco1)c1cc(C(=O)C2CC2)c[nH]1,,"18.4 µM [rising, single point]",14.7
O=C(c1cc(-c2ccc(Cl)cc2)nc2ccccc12)N1CCC1,,,24.3
CCOC(=O)c1[nH]c2ccccc2c1NC(=S)Nc1cc(C)ccc1C,,"9.2 µM [rising, partial curve]",19.7
Cc1nnc(SCC(=O)Nc2ccc(S(=O)(=O)Nc3ccc(Cl)nn3)cc2)s1,,,-5.95
COc1ccccc1NC(=O)CSc1ccc2nnc(-c3ccncc3)n2n1,,"5.17 µM [falling, partial curve, poor fit]",
O=C(Nc1cccc2ccccc12)N1CCOCC1,,"0.0291 µM [rising, full curve, poor fit]",7.89
O=C(C/C=N/OCc1ccc(Cl)cc1)c1cnc(-c2ccccc2)s1,,"8.2 µM [rising, partial curve]",25.6
CCOc1ccc(OCCSc2nc3ccccc3c(=O)[nH]2)cc1,,,11.1
COc1cc(C(=O)NC2CCN(Cc3nnnn3Cc3cccs3)CC2)cc(OC)c1OC,"7.31 µM [rising, partial curve, poor fit]","3.26 µM [rising, partial curve]",
Cc1cccc(OCC(=O)N(Cc2cccs2)C2CCS(=O)(=O)C2)c1C (centres undefined),"0.651 µM [rising, single point]",,
O=C(O)C1Sc2[nH]c(=O)sc2C2c3ccc(O)cc3OC(=O)C12 (centres undefined),,"0.82 µM [falling, full curve]",1.78
O=C1c2ccccc2C(=O)N1Cc1nn2c(-c3ccc(Cl)cc3)nnc2s1,,"1.3 µM [rising, full curve, poor fit]",-4.83
CCOC(=O)Cc1csc(NC(=O)COc2ccc(N(C)S(=O)(=O)c3ccc(C)cc3)cc2)n1,,"8.2 µM [falling, partial curve]",-5.16
C=CCn1c(SCC(C)=O)nc2scc(-c3ccc(C)o3)c2c1=O,"13 µM [falling, partial curve, poor fit]",,-38.1
Cc1cccc(NC(=O)COc2ccc(/C=C\c3[nH]c(=O)[nH]c(=O)c3[N+](=O)[O-])cc2)c1,,"20.6 µM [falling, single point]",-27.4
COc1cccc(-c2noc(C(C)n3nc(C)c([N+](=O)[O-])c3C)n2)c1 (centres undefined),,,-20.1
CN(CC(=O)Nc1ccccc1Br)C(=O)c1sccc1-c1ccccc1,"0.461 µM [rising, full curve, poor fit]",,8.7

# 4 entries from above, with tabs.
SMILES	AC50 [1]	AC50 [2]	cell number change [%]
CCOC(=O)c1[nH]c2ccccc2c1NC(=S)Nc1cc(C)ccc1C		9.2 µM [rising, partial curve]	19.7
COc1ccccc1NC(=O)CSc1ccc2nnc(-c3ccncc3)n2n1		5.17 µM [falling, partial curve, poor fit]	
O=C(Nc1cccc2ccccc12)N1CCOCC1		0.0291 µM [rising, full curve, poor fit]	7.89
COc1cc(C(=O)NC2CCN(Cc3nnnn3Cc3cccs3)CC2)cc(OC)c1OC	7.31 µM [rising, partial curve, poor fit]	3.26 µM [rising, partial curve]	
